Data source: PubChem BioAssay AID1224828 (NIAID, 2016)
Here is an unselected part of about 17,000 reagents tested. 762 of them (4.5%) count as active. 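Active calls include both raised and lowered p65 entry, mostly lowered; wells with fewer than 50 cells lack a z-score.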 Raw values are not corrected between plates.

Screen: 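Regulators linking TLR4 signalling to p65 nuclear translocation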 (primary screen)
System: mouse RAW264.7 G9 macrophage reporter cells (GFP-p65, Tnf promoter-mCherry)
Reagents: siRNA pool against mouse genes, 100 nM
Time to read-out: 2 days siRNA transfection, then 40 min LPS before fixation
Treatment: LPS (Salmonella minnesota R595) at 10 ng/ml
Measured: 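Imaged p65 nuclear translocation ratio, normalised to the plate median, converted to robust z-scores and averaged across two replicates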
Direction: p65 translocation robust z-score: higher = more nuclear NF-kappaB p65 after LPS than the plate median; nuclear/cytoplasmic p65 ratio: higher = more nuclear NF-kappaB p65
Rule for the call: 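Called active when z exceeds 3.3 or falls under -1.56 (median of Tlr4 controls), giving activity score of at least 50; no calls for control wells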
Calls: active = hit (p65 shift raised or lowered); inactive = no clear change

| gene | PubChem SID | p65 translocation robust z-score | nuclear/cytoplasmic p65 ratio, rep 1 | nuclear/cytoplasmic p65 ratio, rep 2 | low cell count flag | outcome |
| --- | --- | --- | --- | --- | --- | --- |
| Dgke | SID315471364 | -0.59 | 1.69 | 1.31 | enough cells to score | inactive |
| Tbkbp1 | SID315474687 | – | 1.26 | 1.63 | fewer than 50 cells per well; well left out of scoring | inactive |
| E2f2 | SID315479643 | 1.01 | 1.6 | 1.65 | enough cells to score | inactive |
| E2f2 | SID315479644 | 1.17 | 1.62 | 1.54 | enough cells to score | inactive |
| Stac3 | SID315479354 | 1.18 | 1.55 | 1.75 | enough cells to score | inactive |
| Ogfod3 | SID315472270 | -0.92 | 1.41 | 1.32 | enough cells to score | inactive |
| Rala | SID315471352 | 0.73 | 1.72 | 1.53 | enough cells to score | inactive |
| Rit1 | SID315468980 | -0.89 | 1.39 | 1.39 | enough cells to score | inactive |
| Ca3 | SID315465758 | 0.05 | 1.53 | 1.87 | enough cells to score | inactive |
| Or5b24 | SID315479993 | -0.63 | 1.51 | 1.45 | enough cells to score | inactive |
| Hbs1l | SID315471523 | 0.16 | 1.65 | 1.58 | enough cells to score | inactive |
| Nxph1 | SID315468276 | -1.51 | 1.46 | 1.33 | enough cells to score | inactive |
| Olfml2b | SID315481221 | -0.04 | 1.36 | 1.25 | enough cells to score | inactive |
| Eaf2 | SID315476538 | 0.64 | 1.65 | 1.36 | enough cells to score | inactive |
| Ikbke | SID315471569 | -1.05 | 1.83 | 1.24 | enough cells to score | inactive |
| Tmc6 | SID315478114 | -0.25 | 1.61 | 1.36 | enough cells to score | inactive |
| Defa6 | SID315466310 | 0.58 | 1.56 | 1.42 | enough cells to score | inactive |
| Zfp934 | SID315475450 | 0.15 | 1.43 | 1.58 | enough cells to score | inactive |
| Plxna3 | SID315468602 | -0.85 | 1.35 | 1.32 | enough cells to score | inactive |
| Flot2 | SID315466718 | -1.52 | 1.35 | 1.36 | enough cells to score | inactive |
| Eif2s1 | SID315466469 | 0.63 | 1.57 | 1.42 | enough cells to score | inactive |
| Brs3 | SID315465673 | -0.4 | 1.42 | 1.55 | enough cells to score | inactive |
| Vash1 | SID315479394 | 0.94 | 1.79 | 1.54 | enough cells to score | inactive |
| Tor1a | SID315470766 | -0.74 | 1.43 | 1.23 | enough cells to score | inactive |
| Megf9 | SID315478775 | 0.08 | 1.59 | 1.27 | enough cells to score | inactive |
| Ak3 | SID315471419 | -0.64 | 1.51 | 1.36 | enough cells to score | inactive |
| Med27 | SID315473686 | 1.22 | 1.64 | 1.54 | enough cells to score | inactive |
| Pabir1 | SID315473376 | – | 1.16 | 1.14 | fewer than 50 cells per well; well left out of scoring | inactive |
| Mon1b | SID315480915 | 1.69 | 1.58 | 1.8 | enough cells to score | inactive |
| Unc5cl | SID315475348 | – | 1.41 | 1.23 | fewer than 50 cells per well; well left out of scoring | inactive |
| Pan2 | SID315476357 | 0.42 | 1.6 | 1.53 | enough cells to score | inactive |
| Chac1 | SID315473710 | 0.22 | 1.37 | 1.5 | enough cells to score | inactive |
| Tmprss3 | SID315477147 | 1.03 | 1.68 | 1.65 | enough cells to score | inactive |
| Speer2 | SID315478337 | – | 1.37 | 1.17 | fewer than 50 cells per well; well left out of scoring | inactive |
| P2rx4 | SID315468367 | 1.2 | 1.55 | 1.62 | enough cells to score | inactive |
| Tmco1 | SID315473676 | 1.25 | 1.49 | 1.58 | enough cells to score | inactive |
| Or52r1c | SID315480661 | -0.62 | 1.28 | 1.26 | enough cells to score | inactive |
| Cdc42bpb | SID315478161 | 0.71 | 1.77 | 1.5 | enough cells to score | inactive |
| Fbxo44 | SID315478841 | -0.03 | 1.56 | 1.49 | enough cells to score | inactive |
| Gnl1 | SID315466937 | 1.35 | 1.85 | 1.73 | enough cells to score | inactive |
| Tent2 | SID315476244 | – | 1.92 | 1.37 | fewer than 50 cells per well; well left out of scoring | inactive |
| Pbp2 | SID315475301 | 1.23 | 1.6 | 1.54 | enough cells to score | inactive |
| Cyp4f13 | SID315477194 | -0.72 | 1.5 | 1.64 | enough cells to score | inactive |
| Kcnj1 | SID315471495 | 1.99 | 1.72 | 1.66 | enough cells to score | inactive |
| Cimap2 | SID315479629 | -0.95 | 1.54 | 1.44 | enough cells to score | inactive |
| Abi3bp | SID315481377 | 0.99 | 1.72 | 1.68 | enough cells to score | inactive |
| Ints8 | SID315474599 | 1.09 | 1.57 | 1.58 | enough cells to score | inactive |
| Krtap1-5 | SID315473862 | – | 2.28 | 1.18 | fewer than 50 cells per well; well left out of scoring | inactive |
| Hsd17b2 | SID315467310 | -0.37 | 1.44 | 1.28 | enough cells to score | inactive |
| Gpr12 | SID315466985 | -0.5 | 1.44 | 1.5 | enough cells to score | inactive |
| Opn1sw | SID315465622 | 1.59 | 1.71 | 1.84 | enough cells to score | inactive |
| Ppdpf | SID315472477 | – | 1.21 | 1.04 | fewer than 50 cells per well; well left out of scoring | inactive |
| C2 | SID315465695 | -0.64 | 1.55 | 1.49 | enough cells to score | inactive |
| Gyg1 | SID315470572 | 1.46 | 1.82 | 1.8 | enough cells to score | inactive |
| Jsrp1 | SID315474376 | – | 1.34 | 1.67 | fewer than 50 cells per well; well left out of scoring | inactive |
| Poln | SID315480964 | 2.19 | 1.83 | 1.46 | enough cells to score | inactive |
| Sphk1 | SID315469403 | – | 1.25 | 1.02 | fewer than 50 cells per well; well left out of scoring | inactive |
| Cfap298 | SID315473357 | 1.14 | 1.58 | 1.72 | enough cells to score | inactive |
| Vmn1r69 | SID315479911 | – | 1.23 | 1.1 | fewer than 50 cells per well; well left out of scoring | inactive |
